Measurements reported in the supplement of paper PMC12819154, “High-throughput peptide-centric local stability assay extends protein–ligand identification to membrane proteins, tissues and bacteria” (Nature Structural & Molecular Biology, 2025).
This is one part of the list. Most values lie at the level of the controls, where differences are scatter.

Protein sequences, listed by entry. Tags and fused reporters are not part of them. Lines headed by an entry give the natural chain unless they say otherwise; changes in a name come on top.
UniProt Q8IZX4, whole entry: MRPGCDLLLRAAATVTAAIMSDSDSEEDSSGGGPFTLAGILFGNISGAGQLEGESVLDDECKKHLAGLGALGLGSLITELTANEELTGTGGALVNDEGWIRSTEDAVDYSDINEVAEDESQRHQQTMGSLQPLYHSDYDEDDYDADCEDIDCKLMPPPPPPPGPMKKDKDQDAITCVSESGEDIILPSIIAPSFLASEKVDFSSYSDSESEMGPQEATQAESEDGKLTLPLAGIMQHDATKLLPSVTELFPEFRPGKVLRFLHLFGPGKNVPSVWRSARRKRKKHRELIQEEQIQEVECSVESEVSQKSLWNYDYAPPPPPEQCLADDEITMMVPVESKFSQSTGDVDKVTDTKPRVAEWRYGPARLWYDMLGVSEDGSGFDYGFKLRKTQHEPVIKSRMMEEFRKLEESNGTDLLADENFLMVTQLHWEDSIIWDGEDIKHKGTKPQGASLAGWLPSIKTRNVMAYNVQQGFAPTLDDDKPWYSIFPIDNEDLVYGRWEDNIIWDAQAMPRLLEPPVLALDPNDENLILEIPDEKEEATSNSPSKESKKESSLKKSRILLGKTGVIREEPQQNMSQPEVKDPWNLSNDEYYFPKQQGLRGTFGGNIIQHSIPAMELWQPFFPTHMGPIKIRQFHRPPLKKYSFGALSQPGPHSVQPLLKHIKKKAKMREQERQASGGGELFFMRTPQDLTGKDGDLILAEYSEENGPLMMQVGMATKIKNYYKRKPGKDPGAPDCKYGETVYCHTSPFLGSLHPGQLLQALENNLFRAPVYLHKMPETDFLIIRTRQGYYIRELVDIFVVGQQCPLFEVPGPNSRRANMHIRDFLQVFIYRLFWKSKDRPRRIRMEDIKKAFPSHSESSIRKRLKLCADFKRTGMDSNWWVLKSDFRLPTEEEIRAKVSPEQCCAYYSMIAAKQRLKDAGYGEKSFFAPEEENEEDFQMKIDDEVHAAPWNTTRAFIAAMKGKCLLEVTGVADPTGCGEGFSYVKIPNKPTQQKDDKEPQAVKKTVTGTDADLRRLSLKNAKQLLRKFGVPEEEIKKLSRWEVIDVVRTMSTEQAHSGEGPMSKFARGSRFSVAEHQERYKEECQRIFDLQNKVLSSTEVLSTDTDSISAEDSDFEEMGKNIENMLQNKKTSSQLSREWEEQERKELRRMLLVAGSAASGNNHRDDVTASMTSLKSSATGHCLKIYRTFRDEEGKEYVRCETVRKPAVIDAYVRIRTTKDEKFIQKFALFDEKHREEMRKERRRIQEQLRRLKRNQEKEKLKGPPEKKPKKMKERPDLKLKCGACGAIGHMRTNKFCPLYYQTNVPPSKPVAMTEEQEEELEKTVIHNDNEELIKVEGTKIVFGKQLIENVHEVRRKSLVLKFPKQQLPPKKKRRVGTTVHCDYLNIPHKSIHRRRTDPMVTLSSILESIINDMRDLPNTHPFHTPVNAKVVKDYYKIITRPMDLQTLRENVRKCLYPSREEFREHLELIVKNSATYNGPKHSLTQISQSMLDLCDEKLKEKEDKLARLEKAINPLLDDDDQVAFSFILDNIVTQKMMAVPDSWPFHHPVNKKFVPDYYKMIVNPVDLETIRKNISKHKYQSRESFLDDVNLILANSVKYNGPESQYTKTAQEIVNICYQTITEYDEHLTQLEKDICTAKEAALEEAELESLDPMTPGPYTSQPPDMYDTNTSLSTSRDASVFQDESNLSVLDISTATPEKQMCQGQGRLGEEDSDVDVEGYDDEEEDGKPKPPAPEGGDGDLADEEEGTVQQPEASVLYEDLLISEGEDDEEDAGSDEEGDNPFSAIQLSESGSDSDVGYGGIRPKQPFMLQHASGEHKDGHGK
UniProt Q86WQ0: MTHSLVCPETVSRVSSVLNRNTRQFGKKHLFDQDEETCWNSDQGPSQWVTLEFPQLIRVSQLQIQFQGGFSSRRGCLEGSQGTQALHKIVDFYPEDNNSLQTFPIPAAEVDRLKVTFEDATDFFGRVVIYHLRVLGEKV
UniProt Q8IY37: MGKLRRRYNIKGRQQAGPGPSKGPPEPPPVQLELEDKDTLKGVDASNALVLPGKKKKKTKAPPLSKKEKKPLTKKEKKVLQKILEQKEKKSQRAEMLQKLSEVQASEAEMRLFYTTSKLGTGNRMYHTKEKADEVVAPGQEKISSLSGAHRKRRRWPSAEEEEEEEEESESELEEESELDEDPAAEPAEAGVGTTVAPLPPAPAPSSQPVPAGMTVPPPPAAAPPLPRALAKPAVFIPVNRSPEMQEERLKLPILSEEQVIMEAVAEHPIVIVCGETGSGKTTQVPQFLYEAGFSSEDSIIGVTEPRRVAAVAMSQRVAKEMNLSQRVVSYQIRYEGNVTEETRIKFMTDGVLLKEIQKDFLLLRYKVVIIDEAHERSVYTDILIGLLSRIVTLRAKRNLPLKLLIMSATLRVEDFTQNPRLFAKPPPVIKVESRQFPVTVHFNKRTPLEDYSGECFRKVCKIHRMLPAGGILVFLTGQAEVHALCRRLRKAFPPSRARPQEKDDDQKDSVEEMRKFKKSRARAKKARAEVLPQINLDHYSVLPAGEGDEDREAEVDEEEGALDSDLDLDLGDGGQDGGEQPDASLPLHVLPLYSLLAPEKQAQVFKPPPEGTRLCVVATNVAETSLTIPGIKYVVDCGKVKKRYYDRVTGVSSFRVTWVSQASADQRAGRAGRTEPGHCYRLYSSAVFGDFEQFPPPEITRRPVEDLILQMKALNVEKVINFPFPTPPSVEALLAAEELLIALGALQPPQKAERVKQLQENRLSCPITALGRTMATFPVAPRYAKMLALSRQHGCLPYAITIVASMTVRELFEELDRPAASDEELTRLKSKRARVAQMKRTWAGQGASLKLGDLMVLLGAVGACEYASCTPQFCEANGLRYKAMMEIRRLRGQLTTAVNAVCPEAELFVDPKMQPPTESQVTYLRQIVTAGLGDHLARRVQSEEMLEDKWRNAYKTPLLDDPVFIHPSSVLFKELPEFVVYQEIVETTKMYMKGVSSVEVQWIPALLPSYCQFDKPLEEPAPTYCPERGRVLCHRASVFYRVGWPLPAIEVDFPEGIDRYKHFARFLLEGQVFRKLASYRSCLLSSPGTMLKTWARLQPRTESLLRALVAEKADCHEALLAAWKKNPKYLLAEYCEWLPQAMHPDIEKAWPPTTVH
UniProt Q8IWL3: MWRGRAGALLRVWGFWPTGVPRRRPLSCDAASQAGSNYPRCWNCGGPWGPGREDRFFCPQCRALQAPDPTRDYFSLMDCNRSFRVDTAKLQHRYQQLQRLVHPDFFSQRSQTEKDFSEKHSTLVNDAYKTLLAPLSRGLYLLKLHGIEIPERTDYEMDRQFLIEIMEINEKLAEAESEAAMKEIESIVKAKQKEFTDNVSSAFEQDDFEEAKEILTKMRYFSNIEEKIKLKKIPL
UniProt Q8IYI8: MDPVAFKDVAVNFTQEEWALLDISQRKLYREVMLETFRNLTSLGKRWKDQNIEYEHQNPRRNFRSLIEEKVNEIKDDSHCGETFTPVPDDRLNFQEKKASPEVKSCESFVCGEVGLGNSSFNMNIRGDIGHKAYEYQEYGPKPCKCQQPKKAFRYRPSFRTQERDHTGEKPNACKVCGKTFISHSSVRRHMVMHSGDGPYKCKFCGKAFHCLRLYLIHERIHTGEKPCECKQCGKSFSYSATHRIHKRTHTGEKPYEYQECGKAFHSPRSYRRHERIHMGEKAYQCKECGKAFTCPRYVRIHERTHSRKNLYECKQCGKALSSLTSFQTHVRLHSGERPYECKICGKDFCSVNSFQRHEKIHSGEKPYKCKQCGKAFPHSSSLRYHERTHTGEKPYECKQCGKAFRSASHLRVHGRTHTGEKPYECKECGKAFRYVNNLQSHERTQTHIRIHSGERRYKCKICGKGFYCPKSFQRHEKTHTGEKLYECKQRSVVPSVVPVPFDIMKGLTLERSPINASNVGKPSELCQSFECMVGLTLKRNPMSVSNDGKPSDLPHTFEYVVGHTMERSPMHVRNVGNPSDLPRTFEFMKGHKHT
UniProt Q8IXR5: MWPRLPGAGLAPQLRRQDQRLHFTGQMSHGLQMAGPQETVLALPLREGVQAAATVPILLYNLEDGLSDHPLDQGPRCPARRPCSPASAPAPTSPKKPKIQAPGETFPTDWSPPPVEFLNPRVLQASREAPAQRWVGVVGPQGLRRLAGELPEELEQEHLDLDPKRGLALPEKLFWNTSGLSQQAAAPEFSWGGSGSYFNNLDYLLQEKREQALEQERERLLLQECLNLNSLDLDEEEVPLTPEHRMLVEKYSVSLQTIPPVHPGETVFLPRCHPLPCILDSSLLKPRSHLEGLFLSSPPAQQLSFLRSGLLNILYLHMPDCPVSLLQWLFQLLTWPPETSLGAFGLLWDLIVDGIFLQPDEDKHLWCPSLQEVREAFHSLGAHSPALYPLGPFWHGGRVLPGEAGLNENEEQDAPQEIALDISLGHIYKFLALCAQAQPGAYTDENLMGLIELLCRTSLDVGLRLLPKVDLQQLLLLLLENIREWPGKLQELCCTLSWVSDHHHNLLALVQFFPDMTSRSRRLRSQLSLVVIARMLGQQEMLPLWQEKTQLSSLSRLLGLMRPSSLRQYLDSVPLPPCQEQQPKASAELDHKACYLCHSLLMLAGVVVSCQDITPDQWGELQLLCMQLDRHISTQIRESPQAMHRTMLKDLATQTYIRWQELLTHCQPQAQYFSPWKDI
UniProt Q8N3X1: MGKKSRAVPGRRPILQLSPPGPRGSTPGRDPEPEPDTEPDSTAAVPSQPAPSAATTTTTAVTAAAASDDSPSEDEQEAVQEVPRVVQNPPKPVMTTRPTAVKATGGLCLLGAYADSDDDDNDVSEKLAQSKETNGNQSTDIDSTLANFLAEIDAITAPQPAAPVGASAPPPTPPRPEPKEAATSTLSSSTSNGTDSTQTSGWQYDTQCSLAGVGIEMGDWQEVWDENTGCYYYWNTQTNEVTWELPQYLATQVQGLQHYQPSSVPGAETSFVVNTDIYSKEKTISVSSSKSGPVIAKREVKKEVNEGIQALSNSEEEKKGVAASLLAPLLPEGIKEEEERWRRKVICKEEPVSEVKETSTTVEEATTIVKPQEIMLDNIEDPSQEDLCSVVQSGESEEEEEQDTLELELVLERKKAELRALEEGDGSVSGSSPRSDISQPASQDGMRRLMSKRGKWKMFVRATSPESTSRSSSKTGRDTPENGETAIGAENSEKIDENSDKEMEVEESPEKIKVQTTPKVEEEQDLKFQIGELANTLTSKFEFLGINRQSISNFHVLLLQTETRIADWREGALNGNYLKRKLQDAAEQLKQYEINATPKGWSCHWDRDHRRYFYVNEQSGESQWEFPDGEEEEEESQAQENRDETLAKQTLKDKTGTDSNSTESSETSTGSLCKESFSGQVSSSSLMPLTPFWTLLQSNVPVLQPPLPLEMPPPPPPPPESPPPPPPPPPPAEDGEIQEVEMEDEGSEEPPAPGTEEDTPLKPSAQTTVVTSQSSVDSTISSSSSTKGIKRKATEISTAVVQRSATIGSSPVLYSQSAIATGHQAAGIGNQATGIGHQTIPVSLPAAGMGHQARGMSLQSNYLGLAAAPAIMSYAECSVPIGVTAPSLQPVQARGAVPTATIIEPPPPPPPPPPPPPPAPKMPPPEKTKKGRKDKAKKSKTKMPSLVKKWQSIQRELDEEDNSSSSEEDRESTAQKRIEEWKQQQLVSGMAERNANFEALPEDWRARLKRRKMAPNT
UniProt Q86XN7: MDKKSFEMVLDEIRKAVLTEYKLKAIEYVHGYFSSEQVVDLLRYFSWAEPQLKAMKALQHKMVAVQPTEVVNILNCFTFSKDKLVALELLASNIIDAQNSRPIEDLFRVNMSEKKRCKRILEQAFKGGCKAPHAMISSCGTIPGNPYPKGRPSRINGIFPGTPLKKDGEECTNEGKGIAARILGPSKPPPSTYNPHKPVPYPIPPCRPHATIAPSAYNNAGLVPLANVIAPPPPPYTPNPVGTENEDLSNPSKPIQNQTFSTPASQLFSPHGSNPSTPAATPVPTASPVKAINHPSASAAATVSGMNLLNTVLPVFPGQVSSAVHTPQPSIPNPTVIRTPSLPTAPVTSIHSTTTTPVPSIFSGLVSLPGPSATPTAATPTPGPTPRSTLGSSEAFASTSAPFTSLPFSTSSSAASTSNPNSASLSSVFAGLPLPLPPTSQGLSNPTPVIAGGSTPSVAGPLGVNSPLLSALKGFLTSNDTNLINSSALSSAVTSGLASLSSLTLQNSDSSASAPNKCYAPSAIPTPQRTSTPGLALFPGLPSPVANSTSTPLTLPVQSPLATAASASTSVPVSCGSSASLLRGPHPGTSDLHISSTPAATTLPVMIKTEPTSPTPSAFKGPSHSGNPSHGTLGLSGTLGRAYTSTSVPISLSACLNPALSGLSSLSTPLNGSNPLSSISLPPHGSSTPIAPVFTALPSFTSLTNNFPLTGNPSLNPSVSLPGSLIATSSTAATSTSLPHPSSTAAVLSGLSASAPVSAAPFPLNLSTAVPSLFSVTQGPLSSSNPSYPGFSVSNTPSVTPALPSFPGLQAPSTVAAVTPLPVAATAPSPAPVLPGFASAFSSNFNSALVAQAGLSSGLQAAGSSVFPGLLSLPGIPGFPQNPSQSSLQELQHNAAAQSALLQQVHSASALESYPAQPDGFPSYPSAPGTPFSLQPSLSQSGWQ

Compound: CN[C@@H]1C[C@H]2O[C@@](C)([C@@H]1OC)n1c3ccccc3c3c4c(c5c6ccccc6n2c5c31)C(=O)NC4 [staurosporine]
Test: log2 fold change of tryptic peptide abundance, ligand vs vehicle (limited proteolysis) (log2 ratio); higher = more trypsin-susceptible (destabilized)
Conditions: ligand concentration: 20 uM; sample: K562 cleared lysate; digestion: 4 min, 22 C (HT-PELSA RT4min, Orbitrap Astral)

Target	log2 fold change
MAP7D3 (peptide sequence: EAVGGQAEDHLK, peptide start residue: 640) (UniProt Q8IWC1)	0.383
UniProt Q8IZX4 (peptide sequence: IITRPMDLQTLR, peptide start residue: 1420)	0.286
NR2C2AP (peptide sequence: GCLEGSQGTQALHK, peptide start residue: 75) (UniProt Q86WQ0)	-0.643
MAP4K3 (peptide sequence: LLQHPFVTQHLTR, peptide start residue: 267) (UniProt Q8IVH8)	-1.05
DHX37 (peptide sequence: TKAPPLSKK, peptide start residue: 59) (UniProt Q8IY37)	0.314
UniProt Q8IYT2 (peptide sequence: ALFPHHVIPDSFLK, peptide start residue: 345)	0.418
HSCB (peptide sequence: LHGIEIPERTDYEMDR, peptide start residue: 144) (UniProt Q8IWL3)	0.336
ZNF440 (peptide sequence: TFISHSSVR, peptide start residue: 180) (UniProt Q8IYI8)	0.401
FAM178B (peptide sequence: ESPQAMHR, peptide start residue: 638) (UniProt Q8IXR5)	0.137
FNBP4 (peptide sequence: TKMPSLVK, peptide start residue: 941) (UniProt Q8N3X1)	-0.44
PROSER1 (peptide sequence: GPSHSGNPSHGTLGLSGTLGR, peptide start residue: 621) (UniProt Q86XN7)	0.397
